# Source: the supplement of paper PMC3334620
# The full ranking holds about 33,000 sequences; the median of “E-score (-0.5 to 0.5)” is about -0.016, and the highest 2% start at about 0.3. Some of the results follow.
# Target: T1, Yer184c (UniProt P39961)
# T1 sequence: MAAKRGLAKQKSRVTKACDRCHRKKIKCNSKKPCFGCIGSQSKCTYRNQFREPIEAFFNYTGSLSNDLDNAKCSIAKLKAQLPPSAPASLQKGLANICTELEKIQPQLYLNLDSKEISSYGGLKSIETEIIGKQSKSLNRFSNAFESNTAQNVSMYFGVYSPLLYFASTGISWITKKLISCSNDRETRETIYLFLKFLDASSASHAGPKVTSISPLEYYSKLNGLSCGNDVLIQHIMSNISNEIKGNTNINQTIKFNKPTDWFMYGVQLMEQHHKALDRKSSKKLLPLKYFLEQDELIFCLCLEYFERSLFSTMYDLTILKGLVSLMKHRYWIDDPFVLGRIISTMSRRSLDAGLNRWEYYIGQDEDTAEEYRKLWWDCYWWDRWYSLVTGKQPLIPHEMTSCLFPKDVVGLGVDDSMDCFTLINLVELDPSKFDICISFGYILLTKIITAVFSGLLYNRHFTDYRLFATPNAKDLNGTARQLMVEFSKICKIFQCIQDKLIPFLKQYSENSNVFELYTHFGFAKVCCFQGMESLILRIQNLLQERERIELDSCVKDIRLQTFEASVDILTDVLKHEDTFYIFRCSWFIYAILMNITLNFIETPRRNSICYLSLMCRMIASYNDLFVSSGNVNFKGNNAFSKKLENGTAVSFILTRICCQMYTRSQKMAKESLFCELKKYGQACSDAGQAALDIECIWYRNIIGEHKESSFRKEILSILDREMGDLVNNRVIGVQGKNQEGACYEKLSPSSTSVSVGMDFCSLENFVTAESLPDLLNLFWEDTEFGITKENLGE
# Assay: PBM E-score (8-mer binding enrichment) (E-score (-0.5 to 0.5)); higher = stronger / more preferred TF binding
# Details: protein concentration: 100 nM; construct: GST-full length
# Method in brief: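 Yeast transcription factors, full-length or as DNA-binding domains, were expressed with a GST tag using PURExpress in vitro transcription/translation. At about 100-200 nM they were applied to universal all-10-mer Agilent arrays, double-stranded by primer extension on fresh or once-stripped slides. Fluorescent anti-GST detected bound protein, and masliner normalised the scans. E-scores for ungapped eight-base words, pooled with reverse complements, came from the Universal PBM Analysis Suite.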
row,Sequence,PBM E-score
1,ATTGTATC,0.154
2,ATCAACCG,0.132
3,CCCCAGGC,-0.218
4,CTCACGGA,0.152
5,ATTGGGAC,-0.0118
6,ACACTGCC,0.144
7,GTGAATAA,0.00485
8,ATGCTTTG,0.233
9,AGGACCCT,-0.055
10,AGACACAA,0.215
11,CGTAAAAA,0.0901
12,ATAATTAT,0.386
13,CCTCTACC,-0.163
14,ATAAATGC,0.0918
15,CTTGTGCC,-0.161
16,ACCTTTCT,-0.0725
17,AATCAGGC,0.00448
18,GTTAAAGA,0.114
19,GATTGAGC,0.109
20,ACCCTCCT,-0.184
21,CAGTAGCA,-0.0779
22,ATGGCGAG,-0.161

row,Sequence,PBM E-score
1,CAGCCGTA,0.142
2,ACGTACGA,-0.299
3,AGTATGGA,0.11
4,AGCCCGTG,-0.14
5,CACGATGA,0.00195
6,GGGCCGGA,0.244
7,GGTGCAAA,0.0127
8,ATACCAGA,-0.0381
9,ACCAGACG,-0.149
10,GCATTCTA,0.0364
11,CACCCCCA,-0.206
12,CGAAAGGA,0.0735
13,AAAGCACG,-0.11
14,AAAGCGAG,0.102
15,AAGACCTG,-0.0984
16,CCAAACAC,0.0344
17,GCGTGGGA,-0.201
18,AACCGCTG,-0.0376
19,AATACCAG,0.0542
20,ACGTGTCC,-0.091
21,CTAGCTGA,-0.0217
22,AGTTATCC,0.14

row,Sequence,PBM E-score
1,TGCGGGAA,0.225
2,GAAATTGA,0.16
3,GCTCAACC,-0.0442
4,AGTAAGAA,0.15
5,AAGAGAAA,-0.0318
6,ACTGTGCG,-0.116
7,ATTGTGTG,-0.151
8,ACCTCCGA,0.0892
9,CACCCCCG,-0.192
10,CCCACACG,-0.0454
11,AGGTTTTG,-0.0473
12,ACCGGTGA,0.0385
13,GCCCTCCA,-0.378
14,ATCTACCC,-0.0264
15,CCATTACG,-0.224
16,ACAACTCT,0.0367
17,ACAACTGA,0.0349
18,AACACAAC,0.206
19,AAAGCAAT,0.166
20,TGTCCTAA,0.0311
21,GAAGCTAC,0.121
22,AAATACCA,0.15

# Laid out differently: entries from further up
row | Sequence | PBM E-score
1 | ATTGTATC | 0.154
11 | CGTAAAAA | 0.0901
17 | AATCAGGC | 0.00448
18 | GTTAAAGA | 0.114
9 | CACCCCCG | -0.192
10 | CCCACACG | -0.0454

# Following part:

row,Sequence,PBM E-score
1,AGAGTATC,0.0154
2,TACGTATA,0.119
3,AAGGGACA,-0.0615
4,GGCTTACA,0.0186
5,GGATGGCA,0.145
6,GGGGCGAA,-0.138
7,CCGAAGCG,0.177
8,AAGGGAAA,0.0001
9,ACGAGGCC,-0.12
10,AACGGGGG,-0.269
11,ACTTCCAC,-0.0554
12,GCTTTCAC,-0.0781
13,ATGGTGTG,-0.0965
14,ATGTTGCG,0.0282
15,CATACTAG,0.052
16,AGATCAAC,-0.0455
17,AGGTACCA,-0.106
18,ATCTAAGC,-0.172
19,ATCCAACA,0.0993
20,CCTGTATC,-0.00733
